This passage reports normalized bacterial growth results from the supplement of paper PMC10398353.

“And” between values parts separate entries of the source, which are not always exact repeats. Equal entries are not always repeated. Structures can show the parent of a compound that is named as a salt. ± gives the standard deviation of the averaged measurements. The list shows a part of the results. Single values of this set are uncertain.

The assay deals with Salmonella enterica serovar Typhimurium ST313 D23580. Briefly: normalized bacterial growth (OD600 20 h minus 0 h, interquartile-mean normalized) (fraction of plate interquartile mean); higher = more bacterial growth (less inhibition). The note with it: LPM (pH 5.8, low phosphate, low Mg2+), concentration: 10 µM, temperature: 37 °C.
As for `C[N+]1(C)[C@@H]2CC[C@H]1C[C@@H](OC(=O)C(O)c1ccccc1)C2` (stereo partly specified), the normalized bacterial growth was 1.01.
The value for `COc1ccc2c(c1)OC1(O)COc3cc(OC)c(OC)cc3C1=C2` (stereo unspecified) was 0.988.
The value for `COc1c2ccoc2c(OC)c2oc(=O)ccc12` was 1.1.
Take `COc1ccc([C@@H]2CC(=O)c3c(O)cc(O[C@@H]4O[C@H](CO[C@@H]5O[C@@H](C)[C@H](O)[C@@H](O)[C@H]5O)[C@@H](O)[C@H](O)[C@H]4O)cc3O2)cc1O`: the normalized bacterial growth worked out at 1.13.
`CC(C)(C(=O)O)c1ccc(C(O)CCCN2CCC(C(O)(c3ccccc3)c3ccccc3)CC2)cc1` (stereo unspecified) showed a normalized bacterial growth of 1.35.
As for `CC(C)(C(=O)O)c1ccc(C(O)CCCN2CCC(C(O)(c3ccccc3)c3ccccc3)CC2)cc1` (stereo unspecified) [Fexofenadine hydrochloride], the normalized bacterial growth is 0.552.
The compound `CC(N)=NCCCC[C@H](N)C(=O)O` [L-N6-(1-Iminoethyl)lysine hydrochloride] came in with a normalized bacterial growth of 1.08.
The value for `CN(C)CCCN1c2ccccc2Sc2ccccc21` [Promazine hydrochloride] was 0.869; that for `Cc1cc(C(C)(C)C)c(O)c(C)c1CC1=NCCN1` [Oxymetazoline hydrochloride] was 0.793.
`O=C[C@H](O)[C@@H](O)[C@H](O)CO` yielded a normalized bacterial growth of 0.517.
Compound `C[N+]1(C)C[C@H](O)C[C@H]1C(=O)[O-]` [Betonicine] came in with a normalized bacterial growth of 1.38.
Regarding `C=CC(C1=CC(=O)C=CC1=O)c1ccccc1` (stereo unspecified), the normalized bacterial growth turned out to be 1.09.
With `COC(=O)[C@H](OC(C)=O)[C@H]1C(C)(C)[C@H](OC(C)=O)[C@@H]2CC3=C4CC(=O)O[C@@H](c5ccoc5)[C@]4(C)CC[C@@H]3[C@@]1(C)C2=O`, the normalized bacterial growth amounted to 1.14.
The value for `CC(=O)NCCCS(=O)(=O)O` was 0.884; that for `COc1ccc2c(c1OC)C(=O)O[C@@H]2[C@H]1c2c(cc3c(c2OC)OCO3)CCN1C` [Noscapine hydrchloride] was 0.842.
As to `COc1ccc2c(c1OC)C(=O)O[C@@H]2[C@H]1c2c(cc3c(c2OC)OCO3)CCN1C`, the normalized bacterial growth was 0.99 and 0.972.
Next, `O=C1C=C(O)C(=O)c2ccccc21`: 0.762; `CCCCCCCCCCCCCCCC(=O)OC(CC(=O)O)C[N+](C)(C)C` (racemic) [Palmitoyl-DL-Carnitine chloride]: 1.32.
Take `CC(C)(C)NCC(O)COc1cccc2c1CCC(=O)N2` (stereo unspecified) [Carteolol hydrochloride]: the normalized bacterial growth was 1.05.
In the case of `C=C[C@@](C)(O)CC[C@H]1C(=C)CC[C@H]2C(C)(C)CCC[C@]12C`, the normalized bacterial growth is 0.893.
As to `C=C1c2c(Cl)ccc(O)c2C(=O)C2=C(O)[C@]3(O)C(=O)C(C(N)=O)=C(O)[C@@H](N(C)C)[C@@H]3[C@@H](O)[C@H]12.O=C(O)c1cc(S(=O)(=O)O)ccc1O` [Meclocycline sulfosalicylate], the normalized bacterial growth is 0.0396.
The value for `C=C1c2c(Cl)ccc(O)c2C(=O)C2=C(O)[C@]3(O)C(=O)C(C(N)=O)=C(O)[C@@H](N(C)C)[C@@H]3[C@@H](O)[C@H]12.O=C(O)c1cc(S(=O)(=O)O)ccc1O` was 0.0259; that for `CC(C)C[C@H](NC(=O)[C@H](O)[C@H](N)Cc1ccccc1)C(=O)O` [Epibestatin hydrochloride] was 1.09; that for `C/C=C1\C(=O)C[C@H]2[C@@H]3CCC4=CC(=O)CC[C@]4(C)[C@H]3CC[C@]12C` [(Z)-Guggulsterone] was 0.921.
The value for `O=C(CCc1ccc(O)cc1)c1c(O)cc(O)cc1OC1OC(CO)C(O)C(O)C1O` (stereo unspecified) was 1.1.
Compound `OC[C@H]1O[C@H](O[C@]2(CCl)O[C@H](CCl)[C@@H](O)[C@@H]2O)[C@H](O)[C@@H](O)[C@H]1Cl` gave a normalized bacterial growth of 1.07.
`O=C(O)[C@@H](O)[C@H](O)[C@H](O)[C@@H](O)C(=O)O` yielded a normalized bacterial growth of 0.744.
`CN1CCc2c(cc(O)c(O)c2Cl)C(c2cccc(Cl)c2)C1` (stereo unspecified): the normalized bacterial growth amounted to 0.802.
Consider `O=C(O)c1cc(=O)cc(C(=O)O)[nH]1` [Chelidamic acid], for which the normalized bacterial growth was 1.12.
The compound `C/C1=C/CCC(C)(O)/C=C\C(C(C)C)C(OC(=O)c2ccc(O)cc2)C1` (stereo unspecified) displayed a normalized bacterial growth of 0.91.
For `Nc1nc2ccc(OC(F)(F)F)cc2s1` [Riluzole hydrochloride], the normalized bacterial growth was determined as 1.02.
In the case of `Nc1nc2ccc(OC(F)(F)F)cc2s1` [Riluzole], the normalized bacterial growth turned out to be 1.02.
In turn, `Oc1cc(O)c2c(c1)O[C@H](c1ccc(O)c(O)c1)[C@H](O)C2` showed a normalized bacterial growth of 0.928.
In turn, `COc1ccc(-c2cc(=O)c3c(O)c(OC)c(O[C@@H]4O[C@H](CO[C@@H]5O[C@@H](C)[C@H](O)[C@@H](O)[C@H]5O)[C@@H](O)[C@H](O)[C@H]4O)cc3o2)cc1` gave a normalized bacterial growth of 0.764.
The value for `C(=C\c1ccccc1)/CN1CCN(C(c2ccccc2)c2ccccc2)CC1` [Cinnarizine] was 0.58; that for `Cn1c(=O)[nH]c(=O)c2[nH]cnc21` was 0.742.
`CCCCCCCCCCCCCCC[C@H](O)[C@H](N)CO` (racemic) [DL-erythro-Dihydrosphingosine] displayed a normalized bacterial growth of 0.958.
Consider `COc1ccc(-c2cc(=O)c3cc(OC)ccc3o2)cc1`, for which the normalized bacterial growth turned out to be 1.
`COc1cccc(-c2cc(=O)c3ccccc3o2)c1N` had a normalized bacterial growth of 0.96.
The compound `CC(=O)c1ccc2c(c1)N(CCCN(C)C)c1ccccc1S2` had a normalized bacterial growth of 0.883.
The compound `CN(C)CCOC(C)(c1ccccc1)c1ccccn1` (stereo unspecified) [Doxylamine succinate] displayed a normalized bacterial growth of 0.896.
As to `Oc1c(I)cc(Cl)c2cccnc12`, the normalized bacterial growth was 0.0876.
In turn, `C=CC(C1=CC(=O)C(OC)=CC1=O)c1ccc(OC)cc1` (stereo unspecified) displayed a normalized bacterial growth of 0.738.
With `C[C@H]1[C@H](C)CC[C@]2(CO)CC[C@]3(C)C(=CC[C@@H]4[C@@]5(C)CC[C@H](O)C(C)(C)[C@@H]5CC[C@]43C)[C@H]12`, the normalized bacterial growth amounted to 0.968 ± 0.097.
The compound `CN(C(=O)C(Cl)Cl)c1ccc(OC(=O)c2ccco2)cc1` registered a normalized bacterial growth of 0.929.
Regarding `Nc1ccn([C@H]2CC[C@@H](CO)O2)c(=O)n1` ["2',3'-dideoxycytidine"], the normalized bacterial growth was 1.05.
For `Oc1cc(O)c2c(c1)O[C@H](c1cc(O)c(O)c(O)c1)[C@H](O)C2`, the normalized bacterial growth was 1.19 ± 0.017.
The value for `C=CC(C)(O)CCC1C(=C)CC(OC(C)=O)C2C(C)(C)CCCC12C` (stereo unspecified) was 0.734; that for `CN1CCN(CCCN2c3ccccc3Sc3ccc(C(F)(F)F)cc32)CC1` [Trifluoperazine dihydrochloride] was 1.35; that for `COc1ccc(OC)c(C(O)CNC(=O)CN)c1` (stereo unspecified) was 1.13.
Compound `COC(=O)C[C@H]1C(C)(C)C2(O)OC34CC2C(=O)[C@]1(C)C3CC[C@]1(C)C4=CC(=O)O[C@H]1c1ccoc1` (stereo partly drawn) ["8beta-HYDROXYCARAPIN, 3,8-HEMIACETAL"] returned a normalized bacterial growth of 1.08.
